# PMC8660895, “Hedgehog-Interacting Protein is a multimodal antagonist of Hedgehog signalling” (Nature Communications, 2021)
# No constants are given. Whether binding was seen depends on the method and setting.
# B1: HHIP-C Glu mutant (K277E/R328E/R350E/K569E/R610E/R613E) (domain or fragment, UniProt Q96QV1 213-670)
# chain: KHNCFCIQEVVSGLRQPVGALHSGDGSQRLFILEKEGYVKILTPEGEIFKEPYLDIHKLVQSGIEGGDERGLLSLAFHPNYKKNGKLYVSYTTNQERWAIGPHDHILRVVEYTVSEKNPHQVDLRTARVFLEVAELHEKHLGGQLLFGPDGFLYIILGDGMITLDDMEEMDGLSDFTGSVLRLDVDTDMCNVPYSIPRSNPHFNSTNQPPEVFAHGLHDPGRCAVDRHPTDININLTILCSDSNGKNRSSARILQIIKGKDYESEPSLLEFKPFSNGPLVGGFVYRGCQSERLYGSYVFGDRNGNFLTLQQSPVTKQWQEKPLCLGTSGSCRGYFSGHILGFGEDELGEVYILSSSESMTQTHNGKLYKIVDPKRPLMPEECRATVQPAQTLTSECSELCENGYCTPTGKCCCSPGWEGDFCRTAKCEPACRHGGVCVRPNKCLCKKGYLGPQCEQVD
# Molecular target: HHIP-C Glu mutant (K277E/R328E/R350E/K569E/R610E/R613E) (human) (UniProt Q96QV1)
# Assay: AUC; sedimentation velocity; HHIP-C constructs at 1 mg/mL with 0.16 mM 30-mer heparin (dp30); 10 mM HEPES pH 7.5, 120 mM NaCl; 20 °C; c(s) distributions; both purified
binder,measurement,value
B1,binding,no binding
